Data as given in PubChem BioAssay AID504744 (Drosophila RNAi Screening Center, 2011)

Purpose: 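Identify dsRNAs that increase or decrease phospho-dAkt after insulin treatment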 (primary screen)
Cell system: Drosophila Kc167 cells
Reagent: long dsRNA against Drosophila genes, 250 ng dsRNA per well of a 384-well plate
Time to read-out: 3 days of knock-down, then overnight serum-free starvation before stimulation
Conditions: bovine insulin at 387 nM for 10 minutes after 12 h without serum
Read-out: 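In-cell antibody fluorescence for phospho-dAkt in each well over DNA-dye signal, with log2 residuals expressed as z-scores adjusted for cell count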
Active means: 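Hit in the insulin screen when the two-replicate mean z-score is more extreme than plus or minus 2.5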
The screen tested about 23,000 reagents; shown is a random part of those that have a named target and a result. Over the whole deposit, 98 (0.43%) got an active call. 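Only hit calls are given; the phospho-dAkt signals, z-scores and hit direction were not deposited.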 Names joined by + are all predicted targets of the reagent.

gene | amplicon | Outcome
DIP-zeta (Dpr-interacting protein zeta) | DRSC02203 | inactive
DIP-zeta (Dpr-interacting protein zeta) | DRSC02204 | inactive
DIP-zeta (Dpr-interacting protein zeta) | DRSC02205 | inactive
Msp300 (Muscle-specific protein 300 kDa) | DRSC00854 | inactive
Msp300 (Muscle-specific protein 300 kDa) | DRSC00856 | inactive
Msp300 (Muscle-specific protein 300 kDa) | DRSC00857 | inactive
Msp300 (Muscle-specific protein 300 kDa) | DRSC00858 | inactive
Msp300 (Muscle-specific protein 300 kDa) | DRSC02360 | inactive
Msp300 (Muscle-specific protein 300 kDa) | DRSC03369 | inactive
Msp300 (Muscle-specific protein 300 kDa) | DRSC03370 | inactive
TTLL15 (Tubulin tyrosine ligase-like 15) | DRSC15543 | inactive
CG9287 | DRSC03186 | inactive
CG9287 | DRSC22790 | inactive
CG33271 | DRSC10583 | inactive
CG31910 + snoRNA:Me28S-G2743 (retired record) | DRSC00946 | inactive
Ilp2 (Insulin-like peptide 2) | DRSC10968 | inactive
CG13855 | DRSC14705 | inactive
CG13300 | DRSC09974 | inactive
CG14683 | DRSC17035 | inactive
AP-2alpha (Adaptor Protein complex 2, alpha subunit) | DRSC00800 | inactive
fl(2)d (female lethal d) | DRSC07620 | inactive
Taldo (Transaldolase) | DRSC04320 | inactive
Cdc45 (Cell division cycle 45) | DRSC17747 | inactive
Cdc45 (Cell division cycle 45) | DRSC18164 | inactive
Hs3st-A (Heparan sulfate 3-O sulfotransferase-A) | DRSC06507 | inactive
Hs3st-A (Heparan sulfate 3-O sulfotransferase-A) | DRSC06508 | inactive
Hs3st-A (Heparan sulfate 3-O sulfotransferase-A) | DRSC06509 | inactive
BBS5 (Bardet-Biedl syndrome 5) | DRSC12168 | inactive
CG13893 | DRSC08363 | inactive
Slc25A46a | DRSC20125 | inactive
CG10550 | DRSC14251 | inactive
Syp (Syncrip) | DRSC13444 | inactive
Syp (Syncrip) | DRSC15286 | inactive
COX7AL2 (Cytochrome c oxidase subunit 7A-like 2) | DRSC00099 | inactive
l(2)37Cb (lethal (2) 37Cb) | DRSC02095 | inactive
CG34284 | DRSC14773 | inactive
CG2972 | DRSC18250 | inactive
CG33099 | DRSC15774 | inactive
CG14020 | DRSC02350 | inactive
RpL34a (Ribosomal protein L34a) | DRSC15964 | inactive
CG15767 | DRSC18073 | inactive
CG4953 | DRSC02792 | inactive
Arc2 (Activity-regulated cytoskeleton associated protein 2) | DRSC06436 | inactive
CG4049 | DRSC04443 | inactive
CG2772 | DRSC00530 | inactive
AhcyL1 (Adenosylhomocysteinase like 1) | DRSC08647 | inactive
CG3581 | DRSC15499 | inactive
rho-6 (rhomboid-6) | DRSC02588 | inactive
CG12983 | DRSC11692 | inactive
alpha-Est3 (alpha-Esterase-3) | DRSC12615 | inactive
Ac3 (Adenylate cyclase 3) | DRSC03692 | inactive
sns (sticks and stones) | DRSC06423 | inactive
sns (sticks and stones) | DRSC07687 | inactive
sns (sticks and stones) | DRSC07688 | inactive
sns (sticks and stones) | DRSC07689 | inactive
sns (sticks and stones) | DRSC07691 | inactive
sns (sticks and stones) | DRSC07692 | inactive
mRpL40 (mitochondrial ribosomal protein L40) | DRSC15749 | inactive
Cyp310a1 (Cytochrome P450 310a1) | DRSC03301 | inactive
Eglp1 (Entomoglyceroporin 1) | DRSC04502 | inactive
Prp38 (pre-mRNA processing factor 38) | DRSC07060 | inactive
CG32720 | DRSC17529 | inactive
CG17568 | DRSC02628 | inactive
CG15429 | DRSC00444 | inactive
su(r) (suppressor of rudimentary) | DRSC18705 | inactive
CG31441 | DRSC15723 | inactive
CG31800 | DRSC22525 | inactive
CG32121 | DRSC09265 | inactive
PGS1 (Phosphatidylglycerophosphate synthase 1) | DRSC16304 | inactive
blw (bellwether) | DRSC04675 | inactive
Slob (retired record) | DRSC03436 | inactive
CG3156 | DRSC18503 | inactive
CG34214 | DRSC04490 | inactive
CG3713 | DRSC18648 | inactive
CG17145 | DRSC10247 | inactive
Elys | DRSC19571 | inactive
Ir94c (Ionotropic receptor 94c) | DRSC13539 | inactive
mwh (multiple wing hairs) | DRSC08382 | inactive
sha (shavenoid) | DRSC06331 | inactive
FeCH (Ferrochelatase) | DRSC16948 | inactive
CG15747 | DRSC19713 | inactive
Kif3C (Kinesin family member 3C) | DRSC17209 | inactive
Kif3C (Kinesin family member 3C) | DRSC17210 | inactive
CG8435 | DRSC07179 | inactive
Cdc37 (Cell division cycle 37) | DRSC08648 | inactive
scu (scully) | DRSC20369 | inactive
Boh1 (Buddy of Hmr 1) | DRSC14487 | inactive
CG13810 | DRSC08344 | inactive
CG13810 | DRSC22838 | inactive
OstDelta (Oligosaccharide transferase Delta subunit) | DRSC06980 | inactive
CG13924 | DRSC08393 | inactive
Pi3K68D (Phosphatidylinositol 3-kinase 68D) | DRSC11253 | inactive
nsr (novel spermatogenesis regulator) | DRSC04427 | inactive
nsr (novel spermatogenesis regulator) | DRSC22806 | inactive
CG3008 | DRSC00560 | inactive
scw (screw) | DRSC01711 | inactive
scw (screw) | DRSC21252 | inactive
Ugt49B1 (UDP-glycosyltransferase family 49 member B1) | DRSC04461 | inactive
Mco4 (Multicopper oxidase 4) | DRSC20061 | inactive
CG5355 | DRSC02844 | inactive
CG42262 (retired record) | DRSC17628 | inactive
CG42262 (retired record) | DRSC17974 | inactive
CG17321 | DRSC02598 | inactive
D19B | DRSC11134 | inactive
mRpL43 (mitochondrial ribosomal protein L43) | DRSC04508 | inactive
mRpL43 (mitochondrial ribosomal protein L43) | DRSC22571 | inactive
gsb (gooseberry) | DRSC04692 | inactive
MED15 (Mediator complex subunit 15) | DRSC00267 | inactive
CG12576 | DRSC20621 | inactive
cindr (CIN85 and CD2AP related) | DRSC14126 | inactive
cindr (CIN85 and CD2AP related) | DRSC14298 | inactive
CG17777 | DRSC18137 | inactive
Awh (Arrowhead) | DRSC08140 | inactive
CG8673 | DRSC03105 | inactive
Srrm234 (Serine-arginine repetitive matrix 2/3/4) | DRSC07955 | inactive
Srrm234 (Serine-arginine repetitive matrix 2/3/4) | DRSC08606 | inactive
Pbgs (Porphobilinogen synthase) | DRSC09718 | inactive
CG34241 | DRSC09157 | inactive
CG42537 | DRSC12519 | inactive
Jon74E (Jonah 74E) | DRSC10617 | inactive
CG17600 | DRSC20638 | inactive
CG17600 | DRSC20640 | inactive
CG17600 | DRSC22753 | inactive
sfl (sulfateless) | DRSC08828 | inactive
sfl (sulfateless) | DRSC08830 | inactive
RpL24 (Ribosomal protein L24) | DRSC03185 | inactive
S (Star) | DRSC00785 | inactive
CG5225 | DRSC15742 | inactive
CG12521 | DRSC09893 | inactive
Krn (Keren) | DRSC11202 | inactive
mthl13 (methuselah-like 13) | DRSC05238 | inactive
tll (tailless) | DRSC17085 | inactive
CG34326 (retired record) | DRSC19165 | inactive
Pk34A (Protein kinase at 34A) | DRSC03398 | inactive
CG32221 | DRSC09638 | inactive
eIF4G1 (eukaryotic translation initiation factor 4G1) | DRSC17218 | inactive
Arr2 (Arrestin 2) | DRSC09670 | inactive
GstE6 (Glutathione S transferase E6) | DRSC06676 | inactive
CG12684 | DRSC17875 | inactive
CG2712 | DRSC18589 | inactive
CG6610 | DRSC10674 | inactive
CG17264 | DRSC00500 | inactive
tws (twins) | DRSC12767 | inactive
tws (twins) | DRSC17092 | inactive
CG34030 | DRSC08866 | inactive
GstT3 (Glutathione S transferase T3) | DRSC20541 | inactive
Gk2 (Glycerol kinase 2) | DRSC08610 | inactive
CG13148 | DRSC06275 | inactive
Sgs3 (Salivary gland secretion 3) | DRSC11280 | inactive
Mur29B (Mucin related 29B) | DRSC01018 | inactive
Mur29B (Mucin related 29B) | DRSC02376 | inactive
E(spl)m3-HLH (Enhancer of split m3, helix-loop-helix) | DRSC16694 | inactive
mei-S332 (meiotic from via Salaria 332) | DRSC04704 | inactive
Taf3 (TBP-associated factor 3) | DRSC17170 | inactive
ttk (tramtrack) | DRSC14078 | inactive
ttk (tramtrack) | DRSC17091 | inactive
Galphaf (G protein alpha subunit f) | DRSC11171 | inactive

Individual results from the list.
Msp300 (Muscle-specific protein 300 kDa) [DRSC00854], Outcome = inactive
Value for mRpL43 (mitochondrial ribosomal protein L43) [DRSC22571] under “Outcome”: inactive
Syp (Syncrip) [DRSC15286], Outcome = inactive
Arr2 (Arrestin 2) [DRSC09670], Outcome: inactive
For “Outcome”, CG13924 [DRSC08393] has inactive
CG33271 [DRSC10583], Outcome: inactive
